Assay results: paper PMC9981583

The chains behind the UniProt entries cited, without tags or fusion partners.
UniProt Q9P2H5: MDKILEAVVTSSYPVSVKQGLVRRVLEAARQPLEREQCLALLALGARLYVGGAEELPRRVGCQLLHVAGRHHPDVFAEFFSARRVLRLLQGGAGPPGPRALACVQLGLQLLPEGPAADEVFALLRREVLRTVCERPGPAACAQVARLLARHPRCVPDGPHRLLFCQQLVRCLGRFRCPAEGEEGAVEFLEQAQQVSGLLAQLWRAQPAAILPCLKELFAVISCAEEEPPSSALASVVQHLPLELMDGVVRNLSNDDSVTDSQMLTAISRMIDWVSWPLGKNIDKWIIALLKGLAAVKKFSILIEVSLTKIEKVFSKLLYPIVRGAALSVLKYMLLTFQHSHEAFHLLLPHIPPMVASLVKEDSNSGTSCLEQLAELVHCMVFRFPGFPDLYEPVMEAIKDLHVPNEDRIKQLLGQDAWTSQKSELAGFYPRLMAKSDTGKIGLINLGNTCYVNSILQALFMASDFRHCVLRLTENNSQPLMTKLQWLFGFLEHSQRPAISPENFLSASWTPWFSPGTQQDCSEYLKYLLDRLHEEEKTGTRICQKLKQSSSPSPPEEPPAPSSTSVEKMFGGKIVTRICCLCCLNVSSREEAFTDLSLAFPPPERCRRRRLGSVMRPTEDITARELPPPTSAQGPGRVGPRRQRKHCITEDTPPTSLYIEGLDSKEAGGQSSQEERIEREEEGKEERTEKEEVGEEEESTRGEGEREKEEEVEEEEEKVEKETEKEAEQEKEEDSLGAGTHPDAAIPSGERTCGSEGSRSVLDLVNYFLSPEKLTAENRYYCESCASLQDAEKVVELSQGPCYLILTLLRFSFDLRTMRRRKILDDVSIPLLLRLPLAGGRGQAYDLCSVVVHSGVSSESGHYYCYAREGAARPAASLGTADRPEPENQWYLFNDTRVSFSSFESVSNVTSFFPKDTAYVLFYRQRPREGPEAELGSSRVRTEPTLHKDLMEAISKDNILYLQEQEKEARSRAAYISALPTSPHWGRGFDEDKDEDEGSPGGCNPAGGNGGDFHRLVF
UniProt P17844: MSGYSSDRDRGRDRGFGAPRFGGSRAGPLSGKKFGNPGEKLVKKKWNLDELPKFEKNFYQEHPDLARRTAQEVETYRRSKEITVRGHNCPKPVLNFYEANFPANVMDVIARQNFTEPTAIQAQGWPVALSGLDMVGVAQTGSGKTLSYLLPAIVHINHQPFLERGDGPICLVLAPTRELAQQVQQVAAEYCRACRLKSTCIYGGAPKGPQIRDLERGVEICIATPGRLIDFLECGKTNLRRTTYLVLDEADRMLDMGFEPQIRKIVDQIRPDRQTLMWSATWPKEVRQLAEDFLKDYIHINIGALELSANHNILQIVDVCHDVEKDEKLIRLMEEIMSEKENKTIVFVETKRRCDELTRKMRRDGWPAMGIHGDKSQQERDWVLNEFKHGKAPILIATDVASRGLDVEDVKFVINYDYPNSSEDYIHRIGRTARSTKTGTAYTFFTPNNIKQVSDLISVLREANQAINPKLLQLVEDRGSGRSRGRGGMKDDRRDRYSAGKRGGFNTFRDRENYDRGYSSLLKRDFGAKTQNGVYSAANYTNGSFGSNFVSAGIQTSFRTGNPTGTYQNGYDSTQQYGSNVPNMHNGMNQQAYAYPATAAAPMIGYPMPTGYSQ
UniProt O14744: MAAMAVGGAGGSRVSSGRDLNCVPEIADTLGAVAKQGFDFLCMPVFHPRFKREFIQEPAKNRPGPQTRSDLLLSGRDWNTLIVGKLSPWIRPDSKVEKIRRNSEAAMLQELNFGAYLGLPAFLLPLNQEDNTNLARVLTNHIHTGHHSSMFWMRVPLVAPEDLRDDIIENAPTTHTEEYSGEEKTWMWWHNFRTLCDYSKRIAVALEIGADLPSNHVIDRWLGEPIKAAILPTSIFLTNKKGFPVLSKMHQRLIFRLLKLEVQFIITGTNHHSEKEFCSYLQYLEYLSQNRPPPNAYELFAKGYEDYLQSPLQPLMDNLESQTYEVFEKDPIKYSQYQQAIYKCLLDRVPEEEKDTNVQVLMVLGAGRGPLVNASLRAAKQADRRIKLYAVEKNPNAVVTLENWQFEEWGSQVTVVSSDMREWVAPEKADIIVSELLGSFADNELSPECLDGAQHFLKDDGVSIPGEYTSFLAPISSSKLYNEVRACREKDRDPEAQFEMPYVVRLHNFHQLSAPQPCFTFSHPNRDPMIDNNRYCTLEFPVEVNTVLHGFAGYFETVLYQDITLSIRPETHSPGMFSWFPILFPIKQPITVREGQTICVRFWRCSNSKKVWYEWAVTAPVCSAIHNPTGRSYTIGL
UniProt P12956: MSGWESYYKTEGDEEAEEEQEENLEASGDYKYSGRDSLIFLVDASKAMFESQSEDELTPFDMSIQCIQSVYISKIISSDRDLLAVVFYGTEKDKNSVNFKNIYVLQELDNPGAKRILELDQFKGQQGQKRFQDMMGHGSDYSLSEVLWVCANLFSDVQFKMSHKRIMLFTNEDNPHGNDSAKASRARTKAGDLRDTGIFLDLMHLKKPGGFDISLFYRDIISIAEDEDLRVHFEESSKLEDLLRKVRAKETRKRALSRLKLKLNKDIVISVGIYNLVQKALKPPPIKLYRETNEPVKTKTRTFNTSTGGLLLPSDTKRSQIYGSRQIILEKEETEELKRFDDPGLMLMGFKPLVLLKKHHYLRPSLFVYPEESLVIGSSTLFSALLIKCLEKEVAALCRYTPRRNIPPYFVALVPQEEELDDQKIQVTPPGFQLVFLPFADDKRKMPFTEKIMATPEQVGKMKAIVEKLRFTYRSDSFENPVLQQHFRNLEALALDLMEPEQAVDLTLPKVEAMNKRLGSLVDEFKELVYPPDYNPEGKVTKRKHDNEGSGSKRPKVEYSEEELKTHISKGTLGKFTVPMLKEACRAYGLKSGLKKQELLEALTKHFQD

B1: PPM1B (protein, UniProt O75688 1-479)
chain: MGAFLDKPKTEKHNAHGAGNGLRYGLSSMQGWRVEMEDAHTAVVGIPHGLEDWSFFAVYDGHAGSRVANYCSTHLLEHITTNEDFRAAGKSGSALELSVENVKNGIRTGFLKIDEYMRNFSDLRNGMDRSGSTAVGVMISPKHIYFINCGDSRAVLYRNGQVCFSTQDHKPCNPREKERIQNAGGSVMIQRVNGSLAVSRALGDYDYKCVDGKGPTEQLVSPEPEVYEILRAEEDEFIILACDGIWDVMSNEELCEYVKSRLEVSDDLENVCNWVVDTCLHKGSRDNMSIVLVCFSNAPKVSDEAVKKDSELDKHLESRVEEIMEKSGEEGMPDLAHVMRILSAENIPNLPPGGGLAGKRNVIEAVYSRLNPHRESDGASDEAEESGSQGKLVEALRQMRINHRGNYRQLLEEMLTSYRLAKVEGEESPAEPAATATSSNSDAGNPVTMQESHTESESGLAELDSSNEDAGTKMSGEKI
B2: endogenous α-L-fucosidase 1 (FUCA1) (enzyme, UniProt P04066 32-466)
chain: QPPRRYTPDWPSLDSRPLPAWFDEAKFGVFIHWGVFSVPAWGSEWFWWHWQGEGRPQYQRFMRDNYPPGFSYADFGPQFTARFFHPEEWADLFQAAGAKYVVLTTKHHEGFTNWPSPVSWNWNSKDVGPHRDLVGELGTALRKRNIRYGLYHSLLEWFHPLYLLDKKNGFKTQHFVSAKTMPELYDLVNSYKPDLIWSDGEWECPDTYWNSTNFLSWLYNDSPVKDEVVVNDRWGQNCSCHHGGYYNCEDKFKPQSLPDHKWEMCTSIDKFSWGYRRDMALSDVTEESEIISELVQTVSLGGNYLLNIGPTKDGLIVPIFQERLLAVGKWLSINGEAIYASKPWRVQWEKNTTSVWYTSKGSAVYAIFLHWPENGVLNLESPITTSTTKITMLGIQGDLKWSTDPDKGLFISLPQLPPSAVPAEFAWTIKLTGVK

target: Flag-tagged USP35 (ubiquitin-specific-processing protease 35) (human) (UniProt Q9P2H5); assay: affinity purification with mass spectrometry; Flag-USP35 or empty vector transfected into HCT116; anti-Flag immunoprecipitation; SDS-PAGE, silver stain; band of interest cut for mass spectrometry

binding	Molecule
binds	DDX5 (from UniProt P17844 1-614)
binds	DNAJA1 (from UniProt P31689 1-397)
binds	PRMT5 (from UniProt O14744 1-637)
binds	XRCC6 (from UniProt P12956 1-609)
binds	B1
binds	B2

No constants are given. Whether binding was seen depends on the method and setting. Binding seen in cells or lysates may run through a third protein. Here binding means that the protein was enriched with, or labelled near, the bait; the list need not be complete.
